Data from PubChem BioAssay AID1347423 (Functional Genomics Laboratory (NCATS/FGL), 2020).
Hit rate of the full screen: of about 52,000 sequences, about 210 (0.4%) were called active.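 Rule for the calls: active = gene whose silencing raises cell survival under the drug, median off-target-corrected z-score across its silencing RNAs 2 or more; inactive = the rest.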 This is one part of the list.

test: Resistance to Poly (ADP-Ribose) Polymerase inhibitor: Gene Identification via Genome-wide siRNA Screen; conditions: mouse BRCA2 R2336H ES cells, olaparib, CellTiter-Glo viability; active compounds read high
In short: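 Mouse BRCA2 R2336H ES cells were reverse-transfected with siRNA (20 nM final), treated at 48 h with 500 nM olaparib, and read by CellTiter-Glo after 72 h. Scores: MAD-based z per siRNA, median per gene, seed off-target correction.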

Sequence	z-score
GGACGGCAAAGCGUACUGUTT against Pxn	inactive: 0.826
GGACAUCUGUGUUAAAUUUTT against Npy1r	inactive: 1.39
GGCCCAUAUUUUAUUACCGTT against Galns	inactive: 1.05
GCUAUAUUGUUAGCACACATT against Hmgn2	inactive: 1.36
GGAGCAGUUGUGUUUAACATT against Psg17	inactive: -1.11
GGAGGAUUCAUGCUUUGUUTT against 4932411A10Rik	inactive: -0.794
CGCUAUCUCGUUCAGGAUATT against Timm23	inactive: 1.44
CCUAGAAAUCAGUGAAUUUTT against Garnl1	inactive: 0.183
GCGGGACACCAUCAAUCCATT against Sytl4	inactive: 1.35
GCUUAGAUCUUACCCACCCTT against Ptcra	inactive: 1.29
GGAUCAAGGAAGCUCUCAGTT against Retnlb	inactive: -0.97
GGAGAAUUGCUUGAAUACUTT against D3Ertd300e	inactive: 1.09
CCGUGAAUUUUCAUUCACATT against Prim1	inactive: -0.124
GGUAGAGCAGAGCCUCCAUTT against Olfr555	inactive: -0.0105
GCUUGUGGAUUCGAUUUGGTT against Gtf3c5	inactive: -0.0929
CCGGUUGAGUUCACAGAAUTT against 2610204G22Rik	inactive: -3.34
CCCAAUACCCAGGACUCAATT against Zfp51	inactive: -1.82
GGAAGAAUCGUUUAUGACATT against Ppp4r2	inactive: -0.233
GGGUUUGGUCGUAAACAGCTT against 0610025L06Rik	inactive: 0.779
GGAUGUGUGAAUCUACUGATT against Gpm6a	inactive: 1.48
GGGUGAGUAUAUGAUUCCUTT against Ctsd	inactive: 0.265
GGCGAAUUACUUGUGUUGUTT against Pvrl3	inactive: 0.354
GCCUUGACCUGUCUUUCAATT against Tlr2	inactive: 0.541
CCCACAUCCCUAAGUUGUGTT against BC050196	inactive: -0.808
GGCCAUGAGUCACAUGCUATT against Hcn3	inactive: 0.802
GGUGAGGAGCUGGAUAACATT against Smc4l1	inactive: -1.5
GUCUACAUCAACAUGCCUGTT against Hcst	inactive: -0.491

Sequence	z-score
CGAAUAUGAUACCAGAAAGTT against Il5ra	inactive: -0.172
CCCUCUACAUGAUGACUGUTT against Olfr1280	inactive: 0.595
GGGCCUUAUACAUUUUUCATT against Calm1	inactive: 0.581
GGUGUUCAAAAUUCCUGCCTT against Mbl2	inactive: 0.236
CGGCAACUCAACAAGCUUATT against Cbfa2t3h	inactive: -0.644
GCUAAUAGGAGGACUUGACTT against Txnl2	inactive: 1.92
GGACGUGCUUACAUUGUACTT against Pcdhb9	inactive: -0.25
GCCUUGGCUGAAACUCUCATT against Cybb	inactive: 0.704
GGAUCCUUCUCUAAGGGCCTT against Dgcr8	inactive: -0.713
GGACCAGCUUGAAGCUGAATT against Arl6ip2	inactive: -1.65
GGCAGAAAGCUGAUGAAGCTT against Pcx	inactive: -0.416
GCCUAUUGUGGUAUUACAUTT against Cyp2c40	inactive: -2.39
GGAGAACUGAAGAAUCCAATT against 1110030J09Rik	inactive: 0.894
GCUAAUGUGGAGGACUCACTT against Chml	inactive: -1.99
GGACUCGAGCACCAAAAAGTT against Dyrk1b	inactive: 0.158
GGUGUUCCUGUCUUUCAUGTT against Chordc1	inactive: -1.35
GGCCAUGUGAAGAUGGUGGTT against Ank1	inactive: 1.35
GCCGUUAGGAAAAAACGAUTT against Ckap1	inactive: 0.557
GGUUAAGUCUUUAAAGAAGTT against Ick	inactive: 1.23
GGAUUAAAGGAAGUGACUGTT against Oscar	inactive: -0.531
GCGCAAUGCAGAACUACGATT against Tac1	inactive: 0.068
GAGUUCAUCCCGUAUCACCTT against Cox6a2	inactive: 0.833
GGAUAUGACAGCUUUCUUUTT against T2	inactive: -0.22
GCAGUGGUGUAAACCUCAUTT against Pde3b	inactive: -0.519
CGGAGAACCAACCUAAGUUTT against Dok1	inactive: -0.528
GGUGCAUGCACAAGUGUUUTT against Esrra	inactive: 1.16
GGGUAAUGAGCUUGGUGAATT against Zfp53	inactive: -0.417

Some values from the entries so far.
Value for GCUUGUGGAUUCGAUUUGGTT against Gtf3c5 under z-score: inactive: -0.0929
Value for GGACCAGCUUGAAGCUGAATT against Arl6ip2 under z-score: inactive: -1.65

Later entries

Sequence	z-score
CGGAGUUGAAGUCACAUACTT against E230031K19	inactive: -1.76
GGAUGACCAACAACUAAAGTT against Sytl2	inactive: -0.403
GGUCUUUGUCAUCAAAGGUTT against Xtrp3s1	inactive: 0.539
GGCAGAAUGCACAGAACCUTT against Cpz	inactive: -1.15
GCCUCUUUGUAAAAAUUCUTT against Atp6v0b	inactive: -0.521
CGAUGAUCUUACACUACCCTT against Irx6	inactive: -0.771
GCAGCUCAAUUAGAGUCCATT against Gart	inactive: -0.027
GGACAACCAAGGAAGAAACTT against BC049635	inactive: 0.289
GGACUGGGAAGAUGAUGAATT against 1110012L19Rik	inactive: -1.65
GGUGUAGUAGUGAACUUGATT against Trib1	inactive: 1.19
GCUCUACUCCUUACCUAGUTT against 2610200G18Rik	inactive: 0.517
GGUGUUCUUUGACAGUGCCTT against Atp5d	inactive: -1.33
GGAUUUAUGCAUUUCUCCATT against Exosc8	inactive: -1.07
GCACCGAGACUUGUCAGAGTT against Rab36	inactive: 1.05
GGACAUUGUGACAUCAUGUTT against Diras2	inactive: 0.251
GGAAUUCAUCUACAGAGAATT against Dpp6	inactive: 1.21
GGCCUUCUGUGUGGUCUAUTT against Kcnk7	inactive: -2.4
GGCUUUCCUAGGGAUGUCUTT against S100a3	inactive: 1.17
CGAGCUUAAUCAUUGCCUGTT against Eprs	inactive: -1.6
GGAUGUGGAAGAAUUUCUGTT against Mrpl49	inactive: 0.271
ACAUUUAUCACGACCCUUCTT against Olfr777	inactive: -0.887
GGAAGUGAUCCGAAAAUCATT against Mbd2	inactive: -0.138
GCUUGUCCAAUGCCUAUUCTT against 5430428G01Rik	inactive: -1.7
CGUCGGUUUCUCCCUGAAATT against Tdpoz5	inactive: -1.32
GGAGAGAAAAUCUUCCAUUTT against Pramel6	inactive: 0.489
GGCAGAAACCCUUCUAUGUTT against Bmp8a	inactive: 0.528
GGGCAUUUCAUAAGCUACATT against 4932435O22Rik	inactive: -0.0355

Sequence	z-score
GGUGUUGCUGGUGAAGGACTT against 2810401C16Rik	inactive: -1.01
GGCCUUUGAGGUCUACAUATT against Icam2	inactive: -1.48
GGAACACCAACCAGAAUAATT against Serpina3n	inactive: -0.564
GCGUGCUACCUGAAUAAGATT against Hist3h2ba	inactive: 0.0844
GGGAAGAUCAUUGUUUAUATT against Pgcp	inactive: 1.73
GGAAACCACUUGAUCAGCATT against Ube4a	inactive: -0.0419
GGUUGGAUUCCUGAUAUUATT against Dbhl1	inactive: -1.48
GGGAAGGUGGCCUACAUCATT against 1110005F07Rik	inactive: 1.69
GGCGCACAUAUCUGAUCUUTT against 1200002G13Rik	inactive: 1.11
GGAUCAUCUAUACAGCACATT against Tgfb1i1	inactive: 0.894
GGAAACCAGAACAUCACUUTT against Olfr829	inactive: -0.971
GGCUGAAUUUUGUGACUAUTT against Il18r1	inactive: 2.32
GGUCAGAAAAACAACCACGTT against Phxr5	inactive: -0.832
GCCUCUUCAUGUCAGUCCCTT against Capn12	inactive: 0.65
GGACUAUGCCGAUAAUAUCTT against Rab24	inactive: 0.812
GGAAAAACUACAUGGUAAATT against 1700016F23Rik	inactive: -0.947
GGAAUUCAGAGACAGACUATT against Fpr-rs4	inactive: -1.45
GCUAGACCUCACUGUUUUUTT against Sprr2i	inactive: 0.816
GGUUGAAGACUUCUUACUUTT against Cdc25a	inactive: -0.11
GCUCACACUCUUCAUUAUCTT against Olfr1408	inactive: 0.574
GGAGCAACAGCCAAAUACCTT against 1700001F22Rik	inactive: 0.124
GCUCCUAUUACCAAAUUAATT against Olfr747	inactive: 0.558
GCCCAAGUGUACUACCGUGTT against Ece1	inactive: 0.0965
GGACUUCAGCAACUAUAGUTT against Ggtl3	inactive: 0.246

In another format: results already given
GGUGUUGCUGGUGAAGGACTT against 2810401C16Rik
  z-score: inactive: -1.01
GGUUGGAUUCCUGAUAUUATT against Dbhl1
  z-score: inactive: -1.48
GGGAAGGUGGCCUACAUCATT against 1110005F07Rik
  z-score: inactive: 1.69
GGCGCACAUAUCUGAUCUUTT against 1200002G13Rik
  z-score: inactive: 1.11
